Results are given in words; binding and its absence hold for the method and conditions named. In cells and extracts the contact can be indirect. Some binding calls cover weakened binding; strength is not graded here.
Target: exchange protein directly activated by cAMP 1 (Epac1) (mouse (endogenous in mouse ventricle and HL-1 myocytes)) (UniProt Q8VCC8)
Assay: co-IP; reverse co-immunoprecipitation: mouse ventricle lysates precipitated with anti-Epac1 antibody, reblotted with anti-CD44 antibody; mice treated with 48-h isoproterenol

Amino acid sequences for entries named in this document (tags omitted).
UniProt Q8VCC8: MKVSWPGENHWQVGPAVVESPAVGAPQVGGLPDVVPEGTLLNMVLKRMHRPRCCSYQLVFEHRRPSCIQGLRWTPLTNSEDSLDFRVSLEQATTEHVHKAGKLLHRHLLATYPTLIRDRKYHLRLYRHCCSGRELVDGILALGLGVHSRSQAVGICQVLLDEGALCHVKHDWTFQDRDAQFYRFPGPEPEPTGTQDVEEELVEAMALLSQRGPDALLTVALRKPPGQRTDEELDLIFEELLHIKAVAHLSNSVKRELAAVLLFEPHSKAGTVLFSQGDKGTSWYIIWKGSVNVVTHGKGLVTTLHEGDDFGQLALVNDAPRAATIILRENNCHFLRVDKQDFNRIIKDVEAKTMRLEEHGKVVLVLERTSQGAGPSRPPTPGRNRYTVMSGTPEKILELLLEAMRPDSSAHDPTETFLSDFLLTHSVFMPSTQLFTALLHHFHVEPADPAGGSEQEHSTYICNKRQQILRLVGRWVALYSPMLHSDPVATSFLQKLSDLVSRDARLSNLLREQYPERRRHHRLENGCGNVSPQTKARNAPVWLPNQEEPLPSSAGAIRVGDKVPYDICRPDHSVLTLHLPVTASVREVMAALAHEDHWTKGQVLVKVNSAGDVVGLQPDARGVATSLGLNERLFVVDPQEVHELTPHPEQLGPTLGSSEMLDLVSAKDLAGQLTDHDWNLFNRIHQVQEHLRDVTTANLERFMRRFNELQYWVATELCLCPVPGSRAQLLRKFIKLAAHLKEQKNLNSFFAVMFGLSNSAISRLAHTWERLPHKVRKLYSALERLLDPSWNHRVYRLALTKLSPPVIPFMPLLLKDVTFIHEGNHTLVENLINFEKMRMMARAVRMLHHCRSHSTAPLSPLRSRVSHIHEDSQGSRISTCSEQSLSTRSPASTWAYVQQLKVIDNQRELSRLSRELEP

binding: binds
B1: CD44 (receptor, UniProt P15379 23-778)
chain: QIDLNVTCRYAGVFHVEKNGRYSISRTEAADLCQAFNSTLPTMDQMKLALSKGFETCRYGFIEGNVVIPRIHPNAICAANHTGVYILVTSNTSHYDTYCFNASAPPEEDCTSVTDLPNSFDGPVTITIVNRDGTRYSKKGEYRTHQEDIDASNIIDDDVSSGSTIEKSTPEGYILHTYLPTEQPTGDQDDSFFIRSTLATIASTVHSKSHAAAQKQNNWIWSWFGNSQSTTQTQEPTTSATTALMTTPETPPKRQEAQNWFSWLFQPSESKSHLHTTTKMPGTESNTNPTGWEPNEENEDETDTYPSFSGSGIDDDEDFISSTIATTPRVSARTEDNQDWTQWKPNHSNPEVLLQTTTRMADIDRISTSAHGENWTPEPQPPFNNHEYQDEEETPHATSTTPNSTAEAAATQQETWFQNGWQGKNPPTPSEDSHVTEGTTASAHNNHPSQRITTQSQEDVSWTDFFDPISHPMGQGHQTESKDTDSSHSTTLQPTAAPNTHLVEDLNRTGPLSVTTPQSHSQNFSTLHGEPEEDENYPTTSILPSSTKSSAKDARRGGSLPTDTTTSVEGYTFQYPDTMENGTLFPVTPAKTEVFGETEVTLATDSNVNVDGSLPGDRDSSKDSRGSSRTVTHGSELAGHSSANQDSGVTTTSGPMRRPQIPEWLIILASLLALALILAVCIAVNSRRRCGQKKKLVINGGNGTVEDRKPSELNGEASKSQEMVHLVNKEPSETPDQCMTADETRNLQSVDMKIGV

Reference: paper PMC10347873
